{"sequences": {"note": "Amino acid sequences for entries named in this document (tags omitted). A change or cut given only in a name is not applied to a line headed by its entry.", "UniProt Q64726": "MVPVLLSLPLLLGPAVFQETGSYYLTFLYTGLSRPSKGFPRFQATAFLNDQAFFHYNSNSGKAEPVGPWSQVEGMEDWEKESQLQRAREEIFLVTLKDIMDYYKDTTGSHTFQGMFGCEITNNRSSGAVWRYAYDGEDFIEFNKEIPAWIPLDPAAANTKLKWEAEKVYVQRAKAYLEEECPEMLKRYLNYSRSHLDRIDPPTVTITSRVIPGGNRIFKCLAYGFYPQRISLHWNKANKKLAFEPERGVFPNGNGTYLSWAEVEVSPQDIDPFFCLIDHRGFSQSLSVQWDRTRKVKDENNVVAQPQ", "UniProt Q61508": "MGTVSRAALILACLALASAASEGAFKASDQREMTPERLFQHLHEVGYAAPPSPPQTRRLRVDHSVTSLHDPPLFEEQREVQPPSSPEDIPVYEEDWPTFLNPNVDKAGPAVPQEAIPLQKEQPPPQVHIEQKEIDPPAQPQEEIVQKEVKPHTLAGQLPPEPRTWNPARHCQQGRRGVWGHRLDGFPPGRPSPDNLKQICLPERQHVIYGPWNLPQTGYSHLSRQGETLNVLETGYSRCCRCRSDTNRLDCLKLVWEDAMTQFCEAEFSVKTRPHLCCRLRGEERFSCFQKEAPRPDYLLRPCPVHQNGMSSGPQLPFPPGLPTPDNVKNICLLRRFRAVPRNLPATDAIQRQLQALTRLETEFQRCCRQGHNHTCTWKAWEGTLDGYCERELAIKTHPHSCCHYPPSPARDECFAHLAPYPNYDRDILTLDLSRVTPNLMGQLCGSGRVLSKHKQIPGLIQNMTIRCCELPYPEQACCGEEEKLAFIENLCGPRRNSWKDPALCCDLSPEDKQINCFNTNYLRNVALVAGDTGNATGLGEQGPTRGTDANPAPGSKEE", "UniProt Q61937, whole entry": "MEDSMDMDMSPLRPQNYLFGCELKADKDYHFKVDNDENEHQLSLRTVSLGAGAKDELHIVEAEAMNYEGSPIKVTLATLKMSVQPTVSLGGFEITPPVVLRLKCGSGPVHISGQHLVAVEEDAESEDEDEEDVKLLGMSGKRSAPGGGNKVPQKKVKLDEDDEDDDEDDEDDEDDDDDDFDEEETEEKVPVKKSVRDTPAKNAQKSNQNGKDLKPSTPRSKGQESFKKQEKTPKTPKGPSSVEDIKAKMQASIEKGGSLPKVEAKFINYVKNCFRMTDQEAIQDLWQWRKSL", "UniProt Q61647": "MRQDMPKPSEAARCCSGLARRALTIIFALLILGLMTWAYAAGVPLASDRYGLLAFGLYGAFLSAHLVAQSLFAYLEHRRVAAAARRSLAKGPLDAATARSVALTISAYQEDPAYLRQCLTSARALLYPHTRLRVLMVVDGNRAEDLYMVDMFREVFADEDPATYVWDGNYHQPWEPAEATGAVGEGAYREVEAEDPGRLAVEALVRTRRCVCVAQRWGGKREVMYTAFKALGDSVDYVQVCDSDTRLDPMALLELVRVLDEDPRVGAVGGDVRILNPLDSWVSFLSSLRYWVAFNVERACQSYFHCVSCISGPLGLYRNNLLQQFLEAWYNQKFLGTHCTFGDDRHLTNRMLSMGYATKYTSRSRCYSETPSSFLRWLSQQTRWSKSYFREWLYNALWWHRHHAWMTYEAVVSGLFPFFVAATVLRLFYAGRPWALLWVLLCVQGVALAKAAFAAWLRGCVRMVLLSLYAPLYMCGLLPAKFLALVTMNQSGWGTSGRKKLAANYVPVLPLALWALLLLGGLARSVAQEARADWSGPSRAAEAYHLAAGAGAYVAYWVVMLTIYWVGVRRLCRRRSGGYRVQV", "UniProt Q62203": "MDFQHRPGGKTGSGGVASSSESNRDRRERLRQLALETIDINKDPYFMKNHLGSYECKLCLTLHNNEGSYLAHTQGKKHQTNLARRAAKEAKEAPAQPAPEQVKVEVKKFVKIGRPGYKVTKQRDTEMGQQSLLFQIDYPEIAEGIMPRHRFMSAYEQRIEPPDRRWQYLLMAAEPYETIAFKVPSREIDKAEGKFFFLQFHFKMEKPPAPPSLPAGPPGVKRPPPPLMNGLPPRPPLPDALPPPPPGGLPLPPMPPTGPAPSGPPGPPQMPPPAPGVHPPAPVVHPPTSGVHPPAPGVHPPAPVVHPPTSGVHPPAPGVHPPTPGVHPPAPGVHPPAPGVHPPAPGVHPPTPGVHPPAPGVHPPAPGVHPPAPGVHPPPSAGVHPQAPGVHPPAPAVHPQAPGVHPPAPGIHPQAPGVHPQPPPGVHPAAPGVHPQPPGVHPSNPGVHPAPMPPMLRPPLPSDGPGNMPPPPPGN", "UniProt Q62313": "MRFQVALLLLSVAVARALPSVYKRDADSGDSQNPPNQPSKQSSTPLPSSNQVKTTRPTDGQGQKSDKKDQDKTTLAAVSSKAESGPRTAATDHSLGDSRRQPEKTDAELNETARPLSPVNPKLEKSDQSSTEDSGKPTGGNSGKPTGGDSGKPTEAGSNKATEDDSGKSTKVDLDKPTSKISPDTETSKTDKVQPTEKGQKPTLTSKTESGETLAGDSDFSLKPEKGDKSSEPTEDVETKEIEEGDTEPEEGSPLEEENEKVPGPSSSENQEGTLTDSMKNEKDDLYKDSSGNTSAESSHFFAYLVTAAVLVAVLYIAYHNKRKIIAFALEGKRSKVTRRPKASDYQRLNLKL", "UniProt Q61827": "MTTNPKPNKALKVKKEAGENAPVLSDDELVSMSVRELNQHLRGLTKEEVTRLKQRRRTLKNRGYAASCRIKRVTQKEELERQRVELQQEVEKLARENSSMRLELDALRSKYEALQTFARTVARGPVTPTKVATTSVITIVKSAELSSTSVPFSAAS", "UniProt Q62280, whole entry": "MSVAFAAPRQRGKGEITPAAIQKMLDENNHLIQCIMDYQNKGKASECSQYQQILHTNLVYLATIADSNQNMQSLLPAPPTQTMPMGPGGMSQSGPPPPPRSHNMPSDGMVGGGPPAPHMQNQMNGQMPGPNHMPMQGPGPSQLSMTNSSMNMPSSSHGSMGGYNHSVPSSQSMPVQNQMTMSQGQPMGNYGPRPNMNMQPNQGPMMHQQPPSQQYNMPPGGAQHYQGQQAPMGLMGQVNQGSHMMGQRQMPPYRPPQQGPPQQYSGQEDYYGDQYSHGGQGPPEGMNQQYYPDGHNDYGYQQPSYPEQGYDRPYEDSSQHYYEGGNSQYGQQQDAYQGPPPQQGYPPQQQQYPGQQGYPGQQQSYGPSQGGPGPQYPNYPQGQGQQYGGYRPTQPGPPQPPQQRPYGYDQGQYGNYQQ", "UniProt Q63836": "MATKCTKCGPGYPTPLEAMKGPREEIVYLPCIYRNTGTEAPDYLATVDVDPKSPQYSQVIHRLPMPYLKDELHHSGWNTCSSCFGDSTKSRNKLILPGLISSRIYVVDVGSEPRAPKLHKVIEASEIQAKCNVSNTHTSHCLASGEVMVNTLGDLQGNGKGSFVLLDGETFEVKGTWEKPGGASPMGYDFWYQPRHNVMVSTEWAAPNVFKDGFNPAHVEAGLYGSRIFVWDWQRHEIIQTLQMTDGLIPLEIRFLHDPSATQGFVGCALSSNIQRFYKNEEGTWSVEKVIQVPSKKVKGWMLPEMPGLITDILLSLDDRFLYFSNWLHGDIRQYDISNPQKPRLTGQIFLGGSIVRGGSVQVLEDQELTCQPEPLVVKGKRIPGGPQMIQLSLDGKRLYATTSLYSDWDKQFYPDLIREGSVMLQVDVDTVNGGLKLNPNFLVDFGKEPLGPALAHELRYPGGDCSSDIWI", "UniProt Q64471": "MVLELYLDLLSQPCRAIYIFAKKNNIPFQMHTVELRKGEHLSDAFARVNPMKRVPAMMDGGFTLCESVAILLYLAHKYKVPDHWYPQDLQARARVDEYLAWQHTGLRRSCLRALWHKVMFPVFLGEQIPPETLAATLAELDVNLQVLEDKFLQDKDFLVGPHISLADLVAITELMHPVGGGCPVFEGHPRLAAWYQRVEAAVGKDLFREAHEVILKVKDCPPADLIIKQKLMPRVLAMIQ", "UniProt Q61387": "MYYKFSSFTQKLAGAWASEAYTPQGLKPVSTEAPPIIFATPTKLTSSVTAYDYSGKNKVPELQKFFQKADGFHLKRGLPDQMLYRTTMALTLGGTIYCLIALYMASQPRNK", "UniProt Q640N1": "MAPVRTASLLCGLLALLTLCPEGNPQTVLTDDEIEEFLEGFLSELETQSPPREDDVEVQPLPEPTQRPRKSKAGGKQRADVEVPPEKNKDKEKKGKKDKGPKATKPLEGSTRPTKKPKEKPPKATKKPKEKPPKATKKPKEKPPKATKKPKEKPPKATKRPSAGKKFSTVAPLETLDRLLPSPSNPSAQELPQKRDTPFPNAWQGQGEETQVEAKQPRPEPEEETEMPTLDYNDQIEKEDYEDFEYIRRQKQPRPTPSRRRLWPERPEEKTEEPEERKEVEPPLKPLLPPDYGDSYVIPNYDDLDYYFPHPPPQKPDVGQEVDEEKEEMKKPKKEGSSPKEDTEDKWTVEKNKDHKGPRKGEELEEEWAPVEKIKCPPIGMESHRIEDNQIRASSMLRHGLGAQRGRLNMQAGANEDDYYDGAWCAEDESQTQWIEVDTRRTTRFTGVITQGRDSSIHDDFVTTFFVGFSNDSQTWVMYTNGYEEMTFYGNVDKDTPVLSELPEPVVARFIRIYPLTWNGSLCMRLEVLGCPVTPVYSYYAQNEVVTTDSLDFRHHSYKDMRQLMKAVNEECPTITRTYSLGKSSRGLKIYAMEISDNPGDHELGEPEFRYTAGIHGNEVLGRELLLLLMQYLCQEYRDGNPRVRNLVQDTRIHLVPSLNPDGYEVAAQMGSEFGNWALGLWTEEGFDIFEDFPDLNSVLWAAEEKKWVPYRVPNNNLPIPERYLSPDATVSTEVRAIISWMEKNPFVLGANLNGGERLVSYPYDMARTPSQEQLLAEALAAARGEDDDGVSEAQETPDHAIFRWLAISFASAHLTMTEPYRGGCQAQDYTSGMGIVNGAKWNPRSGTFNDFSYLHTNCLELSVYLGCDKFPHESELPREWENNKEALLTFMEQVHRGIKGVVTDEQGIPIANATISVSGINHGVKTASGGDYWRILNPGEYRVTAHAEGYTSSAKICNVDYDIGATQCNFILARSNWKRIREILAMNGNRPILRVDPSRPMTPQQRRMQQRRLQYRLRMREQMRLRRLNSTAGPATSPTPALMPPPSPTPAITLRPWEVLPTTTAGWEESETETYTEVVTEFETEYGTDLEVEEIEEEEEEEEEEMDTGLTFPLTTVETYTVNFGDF", "UniProt Q62356": "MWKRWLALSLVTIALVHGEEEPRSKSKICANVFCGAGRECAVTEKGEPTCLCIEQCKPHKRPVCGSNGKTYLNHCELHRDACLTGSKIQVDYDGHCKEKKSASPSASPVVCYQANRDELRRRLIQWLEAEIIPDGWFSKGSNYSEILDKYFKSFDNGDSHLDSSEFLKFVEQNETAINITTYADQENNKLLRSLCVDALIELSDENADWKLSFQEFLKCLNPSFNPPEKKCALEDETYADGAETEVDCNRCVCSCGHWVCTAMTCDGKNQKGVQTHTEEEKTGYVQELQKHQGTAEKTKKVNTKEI", "UniProt Q69Z66": "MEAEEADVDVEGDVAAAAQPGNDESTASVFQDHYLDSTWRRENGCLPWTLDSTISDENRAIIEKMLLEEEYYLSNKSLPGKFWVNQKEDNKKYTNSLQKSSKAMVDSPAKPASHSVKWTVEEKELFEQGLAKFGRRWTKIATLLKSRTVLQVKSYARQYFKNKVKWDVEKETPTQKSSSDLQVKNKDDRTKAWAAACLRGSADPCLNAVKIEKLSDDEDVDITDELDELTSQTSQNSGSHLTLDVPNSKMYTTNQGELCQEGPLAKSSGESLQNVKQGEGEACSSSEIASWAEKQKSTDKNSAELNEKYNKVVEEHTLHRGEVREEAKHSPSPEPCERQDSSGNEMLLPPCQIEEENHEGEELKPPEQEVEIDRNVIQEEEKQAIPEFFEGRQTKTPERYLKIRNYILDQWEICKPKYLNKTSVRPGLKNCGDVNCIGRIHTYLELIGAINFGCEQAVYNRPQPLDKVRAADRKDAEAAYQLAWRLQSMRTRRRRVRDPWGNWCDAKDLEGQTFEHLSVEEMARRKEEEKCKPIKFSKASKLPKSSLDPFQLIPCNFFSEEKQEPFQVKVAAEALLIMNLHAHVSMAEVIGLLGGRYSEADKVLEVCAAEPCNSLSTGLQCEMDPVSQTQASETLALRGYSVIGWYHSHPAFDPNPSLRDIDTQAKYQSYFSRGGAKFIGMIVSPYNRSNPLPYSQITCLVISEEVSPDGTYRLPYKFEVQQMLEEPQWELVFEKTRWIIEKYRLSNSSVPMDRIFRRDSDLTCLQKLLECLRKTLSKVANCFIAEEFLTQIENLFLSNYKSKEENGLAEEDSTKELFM", "UniProt Q62048, whole entry": "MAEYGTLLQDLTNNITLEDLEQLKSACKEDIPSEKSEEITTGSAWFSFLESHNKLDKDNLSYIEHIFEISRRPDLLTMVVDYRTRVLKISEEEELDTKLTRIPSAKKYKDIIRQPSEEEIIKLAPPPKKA", "UniProt Q61686, whole entry": "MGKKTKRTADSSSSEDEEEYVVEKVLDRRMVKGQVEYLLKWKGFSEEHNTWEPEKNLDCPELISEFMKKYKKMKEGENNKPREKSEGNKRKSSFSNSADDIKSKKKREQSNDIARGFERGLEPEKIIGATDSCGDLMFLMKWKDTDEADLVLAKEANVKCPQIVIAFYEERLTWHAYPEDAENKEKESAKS"}, "source": "the supplement of paper PMC12819154", "about": "“High-throughput peptide-centric local stability assay extends protein–ligand identification to membrane proteins, tissues and bacteria” (Nature Structural & Molecular Biology, 2025)", "note": "This is one part of the list. Most entries show no effect beyond the scatter of the controls."}
{"compound": "CN[C@@H]1C[C@H]2O[C@@](C)([C@@H]1OC)n1c3ccccc3c3c4c(c5c6ccccc6n2c5c31)C(=O)NC4 [staurosporine]", "experiment": "log2 fold change of tryptic peptide abundance, ligand vs vehicle (limited proteolysis) (log2 ratio); higher = more trypsin-susceptible (destabilized)", "settings": "ligand concentration: 20 uM; sample: mouse liver crude lysate; replicate design: treated separately"}
{"target": "UniProt Q62191 (peptide sequence: MEMDLTMQR, peptide start residue: 160)", "log2 fold change": 0.184}
{"target": "UniProt Q64726 (peptide sequence: ISLHWNK, peptide start residue: 230)", "log2 fold change": 0.189}
{"target": "UniProt Q63943 (peptide sequence: LLSPQQPALQR, peptide start residue: 178)", "log2 fold change": 0.168}
{"target": "UniProt Q68FF9 (peptide sequence: QHHQWYLEKFEDYPK, peptide start residue: 231)", "log2 fold change": 0.545}
{"target": "UniProt Q63880 (peptide sequence: GRLQFWTETLPR, peptide start residue: 542)", "log2 fold change": -0.193}
{"target": "UniProt Q61508 (peptide sequence: EVKPHTLAGQLPPEPR, peptide start residue: 148)", "log2 fold change": -0.282}
{"target": "UniProt Q64378 (peptide sequence: EKLTQAAIVK, peptide start residue: 263)", "log2 fold change": 0.333}
{"target": "UniProt Q61937 (peptide sequence: AKMQASIEK, peptide start residue: 247)", "log2 fold change": -0.288}
{"target": "UniProt Q61647 (peptide sequence: LAVEALVR, peptide start residue: 199)", "log2 fold change": 0.0213}
{"target": "UniProt Q62203 (peptide sequence: LRQLALETIDINKDPYFMK, peptide start residue: 30)", "log2 fold change": -0.314}
{"target": "UniProt Q62313 (peptide sequence: VDLDKPTSK, peptide start residue: 172)", "log2 fold change": -0.134}
{"target": "UniProt Q63918 (peptide sequence: YQASTSNTVSK, peptide start residue: 103)", "log2 fold change": 0.143}
{"target": "UniProt Q61827 (peptide sequence: GLTKEEVTR, peptide start residue: 43)", "log2 fold change": -0.21}
{"target": "UniProt Q62388 (peptide sequence: SNVSATTQSSR, peptide start residue: 80)", "log2 fold change": 0.233}
{"target": "UniProt Q62280 (peptide sequence: GEITPAAIQK, peptide start residue: 14)", "log2 fold change": -0.071}
{"target": "UniProt Q61771 (peptide sequence: GVIPNSFDHIFTHISR, peptide start residue: 117)", "log2 fold change": 1.23}
{"target": "UniProt Q63836 (peptide sequence: CGPGYPTPLEAMKGPR, peptide start residue: 8)", "log2 fold change": 0.257}
{"target": "UniProt Q64471 (peptide sequence: KNNIPFQMHTVELRK, peptide start residue: 23)", "log2 fold change": 0.186}
{"target": "UniProt Q61387 (peptide sequence: NKVPELQK, peptide start residue: 57)", "log2 fold change": -0.0448}
{"target": "UniProt Q61581 (peptide sequence: GHCAPGMECVK, peptide start residue: 78)", "log2 fold change": -0.941}
{"target": "UniProt Q64516 (peptide sequence: EILDAMNR, peptide start residue: 412)", "log2 fold change": 0.198}
{"target": "UniProt Q61879 (peptide sequence: HATALEELSEQLEQAK, peptide start residue: 1201)", "log2 fold change": 0.633}
{"target": "UniProt Q64324 (peptide sequence: SQLLIMDR, peptide start residue: 228)", "log2 fold change": -0.236}
{"target": "UniProt Q68FD7 (peptide sequence: HHSEPLKEDR, peptide start residue: 779)", "log2 fold change": 0.538}
{"target": "UniProt Q62245 (peptide sequence: MEEFIGTVR, peptide start residue: 714)", "log2 fold change": 0.253}
{"target": "UniProt Q62377 (peptide sequence: ASHYDEYYGR, peptide start residue: 371)", "log2 fold change": 0.0265}
{"target": "UniProt Q640N1 (peptide sequence: EILAMNGNRPILR, peptide start residue: 983)", "log2 fold change": -0.245}
{"target": "UniProt Q62356 (peptide sequence: SFDNGDSHLDSSEFLK, peptide start residue: 153)", "log2 fold change": 0.353}
{"target": "UniProt Q62187 (peptide sequence: FSQIGGTR, peptide start residue: 630)", "log2 fold change": -0.388}
{"target": "UniProt Q62018 (peptide sequence: LLKEQEEK, peptide start residue: 856)", "log2 fold change": -0.293}
{"target": "UniProt Q64737 (peptide sequence: CFGPTAQAAQLESSKK, peptide start residue: 93)", "log2 fold change": -0.278}
{"target": "UniProt Q69Z66 (peptide sequence: AMVDSPAKPASHSVK, peptide start residue: 103)", "log2 fold change": 0.593}
{"target": "UniProt Q64430 (peptide sequence: YNPAVIQPR, peptide start residue: 523)", "log2 fold change": 0.28}
{"target": "UniProt Q61550 (peptide sequence: IWLAAHWDK, peptide start residue: 17)", "log2 fold change": 0.336}
{"target": "UniProt Q61548 (peptide sequence: FIQYLASR, peptide start residue: 93)", "log2 fold change": -0.244}
{"target": "UniProt Q64487 (peptide sequence: LIVNLKPEK, peptide start residue: 1071)", "log2 fold change": 0.368}
{"target": "UniProt Q62048 (peptide sequence: QPSEEEIIK, peptide start residue: 114)", "log2 fold change": 0.0757}
{"target": "UniProt Q61686 (peptide sequence: SSFSNSADDIK, peptide start residue: 92)", "log2 fold change": 0.151}
{"target": "UniProt Q61420 (peptide sequence: ASLSENVLGSPK, peptide start residue: 75)", "log2 fold change": 0.314}
